Some of these results come from one statement about several compounds together.
Tested on: NRF2
Experiment: PathHunter Nuclear Translocation assay (DiscoverX), agonist format
Assay type: cell-based
Settings: 6 hours incubation, 10 concentrations, 30 μM top concentration
Excerpt: Vehicle concentration was 1%.
Microplates were read following signal generation with a PerkinElmer Envision™ instrument for chemiluminescent signal detection.

SMILES | EC50
CCn1nnc2c(C)c(C(CC(=O)O)c3ccc4c(c3)CN(C(=O)[C@H]3CC[C@H](C(F)(F)F)CC3)CC4)ccc21 (stereo partly drawn) [Example 39, 3-(1-ethyl-4-methyl-1H-benzo[d][1,2,3]triazol-5-yl)-3-(2-(trans-4-(trifluoromethyl)cyclohexane-1-carbonyl)-1,2,3,4-tetrahydroisoquinolin-7-yl)propanoic acid] | < 10 µM
CCn1nnc2c(C)c(C(CC(=O)O)c3ccc4c(c3)CN(C(=O)[C@@H](OC)c3ccccc3)CC4)ccc21 (stereo partly drawn) [Example 42, 3-(1-ethyl-4-methyl-1H-benzo[d][1,2,3]triazol-5-yl)-3-(2-((S)-2-methoxy-2-phenylacetyl)-1,2,3,4-tetrahydroisoquinolin-7-yl)propanoic acid] | > 10 µM
CCn1nnc2c(C)c(C(CC(=O)O)c3ccc4c(c3)CN(C(=O)N3CCCCC3)CC4)ccc21 (stereo not drawn) [Example 43, 3-(1-ethyl-4-methyl-benzotriazol-5-yl)-3-[2-(piperidine-1-carbonyl)-3,4-dihydro-1H-isoquinolin-7-yl]propanoic acid] | < 10 µM
CCn1nnc2c(C)c(C(CC(=O)O)c3ccc4c(c3)CN(C(=O)N3CCC(C(F)(F)F)CC3)CC4)ccc21 (stereo not drawn) [Example 44, 3-(1-ethyl-4-methyl-1H-benzo[d][1,2,3]triazol-5-yl)-3-(2-(4-(trifluoromethyl)piperidine-1-carbonyl)-1,2,3,4-tetrahydroisoquinolin-7-yl)propanoic acid] | > 10 µM
CCn1nnc2c(C)c(C(CC(=O)O)c3ccc4c(c3)CN(C(=O)N3CCOC(C(C)C)C3)CC4)ccc21 (stereo not drawn) [Example 46, 3-(1-ethyl-4-methyl-1H-benzo[d][1,2,3]triazol-5-yl)-3-(2-(2-isopropylmorpholine-4-carbonyl)-1,2,3,4-tetrahydroisoquinolin-7-yl)propanoic acid] | > 10 µM
Cn1nnc2cc(C(CC(=O)O)c3ccc4c(c3)CN(S(=O)(=O)c3ccccc3)CC4)ccc21 (stereo not drawn) [Example 50, 3-[2-(benzenesulfonyl)-3,4-dihydro-1H-isoquinolin-7-yl]-3-(1-methylbenzotriazol-5-yl)propanoic acid] | > 10 µM
CCn1nnc2c(C)c([C@H](c3ccc4c(c3)CN(C(=O)c3c(C)c(C)cc(C)c3C)CC4)C(C)(C)C(=O)O)ccc21 [Example 54, (3S)-3-(1-ethyl-4-methyl-benzotriazol-5-yl)-2,2-dimethyl-3-[2-(2,3,5,6-tetramethylbenzoyl)-3,4-dihydro-1H-isoquinolin-7-yl]propanoic acid] | < 10 µM
COc1cc(C)c(C(CC(=O)O)c2ccc3c(c2)CN(C(=O)c2c(C)c(C)cc(C)c2C)CC3)cn1 (stereo not drawn) [Example 56, 3-(6-methoxy-4-methyl-3-pyridyl)-3-[2-(2,3,5,6-tetramethylbenzoyl)-3,4-dihydro-1H-isoquinolin-7-yl]propanoic acid] | < 1 µM
Cc1cc(C#N)ccc1C(CC(=O)O)c1ccc2c(c1)CN(C(=O)c1ccccc1)CC2 (stereo not drawn) [Example 59, 3-(2-benzoyl-3,4-dihydro-1H-isoquinolin-7-yl)-3-(4-cyano-2-methyl-phenyl)propanoic Acid] | > 10 µM
CCn1nnc2c(C)c(C(CC(=O)O)c3ccc4c(c3)CN(C(=O)c3ccccc3)CCC4)ccc21 (stereo not drawn) [Example 61, 3-(2-benzoyl-1,3,4,5-tetrahydro-2-benzazepin-8-yl)-3-(1-ethyl-4-methyl-benzotriazol-5-yl)propanoic Acid] | > 10 µM
CCn1nnc2c(C)c(C(CC(=O)O)c3cc4c(c([N+](=O)[O-])c3)CCN(C(=O)c3ccccc3)C4)ccc21 (stereo not drawn) [Example 67, 3-(2-benzoyl-5-nitro-3,4-dihydro-1H-isoquinolin-7-yl)-3-(1-ethyl-4-methyl-benzotriazol-5-yl)propanoic Acid] | > 10 µM
CCn1nnc2c(C)c(C(CC(=O)O)c3ccc4c(c3)CN(C(=O)c3ccccc3)C(C)C4)ccc21 (stereo not drawn) [Example 71, 3-(2-benzoyl-3-methyl-1,2,3,4-tetrahydroisoquinolin-7-yl)-3-(1-ethyl-4-methyl-1H-benzo[d][1,2,3]triazol-5-yl)propanoic Acid] | > 10 µM
CCn1nnc2c(C)c(C(CC(=O)O)c3ccc4c(c3)CN(C(=O)c3cc5ccccc5cn3)CC4)ccc21 (stereo not drawn) [Example 73, 3-(1-ethyl-4-methyl-benzotriazol-5-yl)-3-[2-(isoquinoline-3-carbonyl)-3,4-dihydro-1H-isoquinolin-7-yl]propanoic acid] | < 10 µM
CCn1nnc2c(C)c(C(CC(=O)O)c3ccc4c(c3)CN(C(=O)c3nc5ccccc5[nH]3)CC4)ccc21 (stereo not drawn) [Example 75, 3-[2-(1H-benzimidazole-2-carbonyl)-3,4-dihydro-1H-isoquinolin-7-yl]-3-(1-ethyl-4-methyl-benzotriazol-5-yl)propanoic acid] | > 10 µM
CCn1nnc2c(C)c(C(CC(=O)O)c3ccc4c(c3)CN(C(=O)c3cccc(C)n3)CC4)ccc21 (stereo not drawn) [Example 76, 3-(1-ethyl-4-methyl-benzotriazol-5-yl)-3-[2-(6-methylpyridine-2-carbonyl)-3,4-dihydro-1H-isoquinolin-7-yl]propanoic acid] | > 10 µM
CCn1nnc2c(C)c(C(CC(=O)O)c3ccc4c(c3)CN(C(=O)c3cccnc3C)CC4)ccc21 (stereo not drawn) [Example 77, 3-(1-ethyl-4-methyl-benzotriazol-5-yl)-3-[2-(2-methylpyridine-3-carbonyl) 3,4-dihydro-1H-isoquinolin 7-yl]propanoic acid] | > 10 µM
CCn1nnc2c(C)c(C(CC(=O)O)c3ccc4c(c3)CN(C(=O)c3cc(C)ccc3C)CC4)ccc21 (stereo not drawn) [Example 78, 3-[2-(2,5-dimethylbenzoyl)-3,4-dihydro-1H-isoquinolin-7-yl]-3-(1-ethyl-4-methyl-benzotriazol-5-yl)propanoic acid] | < 1 µM
CCn1nnc2c(C)c(C(CC(=O)O)c3ccc4c(c3)CN(C(=O)c3ccccc3C(F)(F)F)CC4)ccc21 (stereo not drawn) [Example 79, 3-(1-ethyl-4-methyl-benzotriazol-5-yl)-3-[2-[2-(trifluoromethyl)benzoyl]-3,4-dihydro-1H-isoquinolin-7-yl]propanoic acid] | < 10 µM
CCn1nnc2c(C)c(C(CC(=O)O)c3ccc4c(c3)CN(C(=O)c3cc(C)ccc3F)CC4)ccc21 (stereo not drawn) [Example 80, 3-(1-ethyl-4-methyl-benzotriazol-5-yl)-3-[2-(2-fluoro-5-methyl-benzoyl)-3,4-dihydro-1H-isoquinolin-7-yl]propanoic acid] | < 1 µM
CCn1nnc2c(C)c(C(CC(=O)O)c3ccc4c(c3)CN(C(=O)c3ccc5[nH]ccc5c3)CC4)ccc21 (stereo not drawn) [Example 81, 3-(1-ethyl-4-methyl-benzotriazol-5-yl)-3-[2-(1H-indole-5-carbonyl)-3,4-dihydro-1H-isoquinolin-7-yl]propanoic acid] | > 10 µM
CCn1nnc2c(C)c(C(CC(=O)O)c3ccc4c(c3)CN(C(=O)c3cccc(C#N)c3)CC4)ccc21 (stereo not drawn) [Example 82, 3-[2-(3-cyanobenzoyl)-3,4-dihydro-1H-isoquinolin-7-yl]-3-(1-ethyl-4-methyl-benzotriazol-5-yl)propanoic acid] | > 10 µM
CCn1nnc2c(C)c(C(CC(=O)O)c3ccc4c(c3)CN(C(=O)c3oc5ccccc5c3C)CC4)ccc21 (stereo not drawn) [Example 83, 3-(1-ethyl-4-methyl-1H-benzo[d][1,2,3]triazol-5-yl)-3-(2-(3-methylbenzofuran-2-carbonyl)-1,2,3,4-tetrahydroisoquinolin-7-yl)propanoic acid] | < 1 µM
CCn1nnc2c(C)c(C(CC(=O)O)c3ccc4c(c3)CN(C(=O)c3cc5ccccc5[nH]3)CC4)ccc21 (stereo not drawn) [Example 84, 3-(2-(1H-indole-2-carbonyl)-1,2,3,4-tetrahydroisoquinolin-7-yl)-3-(1-ethyl-4-methyl-1H-benzo[d][1,2,3]triazol-5-yl)propanoic acid] | < 1 µM
CCn1nnc2c(C)c(C(CC(=O)O)c3ccc4c(c3)CN(C(=O)c3cc(C)cc(C)c3)CC4)ccc21 (stereo not drawn) [Example 85, 3-(2-(3,5-dimethylbenzoyl)-1,2,3,4-tetrahydroisoquinolin-7-yl)-3-(1-ethyl-4-methyl-1H-benzo[d][1,2,3]triazol-5-yl)propanoic acid] | < 1 µM
CCn1nnc2c(C)c(C(CC(=O)O)c3ccc4c(c3)CN(C(=O)c3ccccc3F)CC4)ccc21 (stereo not drawn) [Example 87, 3-(1-ethyl-4-methyl-1H-benzo[d][1,2,3]triazol-5-yl)-3-(2-(2-fluorobenzoyl)-1,2,3,4-tetrahydroisoquinolin-7-yl)propanoic acid] | < 10 µM
CCn1nnc2c(C)c(C(CC(=O)O)c3ccc4c(c3)CN(C(=O)c3ccc5ccccc5n3)CC4)ccc21 (stereo not drawn) [Example 88, 3-(1-ethyl-4-methyl-1H-benzo[d][1,2,3]triazol-5-yl)-3-(2-(quinoline-2-carbonyl)-1,2,3,4-tetrahydroisoquinolin-7-yl)propanoic acid] | < 10 µM
CCn1nnc2c(C)c(C(CC(=O)O)c3ccc4c(c3)CN(C(=O)c3cc5ccccn5n3)CC4)ccc21 (stereo not drawn) [Example 89, 3-(1-ethyl-4-methyl-1H-benzo[d][1,2,3]triazol-5-yl)-3-(2-(pyrazolo[1,5-a]pyridine-2-carbonyl)-1,2,3,4-tetrahydroisoquinolin-7-yl)propanoic acid] | > 10 µM
CCn1nnc2c(C)c(C(CC(=O)O)c3ccc4c(c3)CN(C(=O)c3ccc(C#N)cc3)CC4)ccc21 (stereo not drawn) [Example 90, 3-(2-(4-cyanobenzoyl)-1,2,3,4-tetrahydroisoquinolin-7-yl)-3-(1-ethyl-4-methyl-1H-benzo[d][1,2,3]triazol-5-yl)propanoic acid] | > 10 µM
CCn1nnc2c(C)c(C(CC(=O)O)c3ccc4c(c3)CN(C(=O)c3coc(C(C)C)n3)CC4)ccc21 (stereo not drawn) [Example 91, 3-(1-ethyl-4-methyl-1H-benzo[d][1,2,3]triazol-5-yl)-3-(2-(2-isopropyloxazole-4-carbonyl)-1,2,3,4-tetrahydroisoquinolin-7-yl)propanoic acid] | > 10 µM
COc1cc(C)c([C@@H](CC(=O)O)c2ccc3c(c2)CN(C(=O)c2cc(C)ccc2C)CC3)cn1 [Example 92, (S)-3-(2-(2,5-dimethylbenzoyl)-1,2,3,4-tetrahydroisoquinolin-7-yl)-3-(6-methoxy-4-methylpyridin-3-yl)propanoic acid] | < 10 µM
